# Data as given in PubChem BioAssay AID602196 (INSERM, 2012).
# Aim: 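Knock-downs that protect lung cancer cells from cisplatin or sensitise them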
# Cell system: human A549 lung cancer cells
# Reagent: siRNA pair against human genes
# Duration: 48 h transfection before cisplatin; time from cisplatin to read-out not stated
# Conditions: cisplatin at a dose killing half of control-siRNA cells; exact dose and duration not given
# Detection: 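Cisplatin cell death as a shift from the 50% death seen with control siRNA; siRNAs toxic or growth-blocking alone scored 0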
# Reading the numbers: two-siRNA summed score (-2 to +2): higher = both siRNAs protect from cisplatin killing; -2 means both sensitise; mean protection from cisplatin (shift in death) and protection from cisplatin (shift in death), siRNA C and protection from cisplatin (shift in death), siRNA D: higher = protection from cisplatin killing
# Hit rule: 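siRNAs harmful alone (LDH or WST-1) get 0; others get +1 for less and -1 for more cisplatin killing; genes are active when the two siRNAs give the same sign, summing to ±2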
# Meaning of the calls: active = both siRNAs shift cisplatin killing the same way; inactive = no consistent shift, or siRNA harmful alone
# Shown is an unselected part of about 23,000 reagents tested. 455 of them (2%) count as active. 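Active includes both protection and sensitisation; some change values fall well beyond the stated -50 to +50 range.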 Reagents against one gene are numbered here. No sequences are given here. Not given: the amount of reagent.
two-siRNA summed score (-2 to +2),mean protection from cisplatin (shift in death) (%),"protection from cisplatin (shift in death), siRNA C (%)","protection from cisplatin (shift in death), siRNA D (%)",outcome,gene symbol,reagent no.
-1,-29.4,-12.8,-46,inactive,COQ3,1
0,0.5,-2,3,inactive,CPT1A,1
-1,-17.8,-11.7,-23.9,inactive,CRLF1,1
0,22.3,17.2,27.4,inactive,LOC340765,1
1,0.4,-20.7,21.6,inactive,OPCML,1
1,6.5,-4,17.1,inactive,USP15,1
0,-3.9,-14.3,6.4,inactive,CASP2,1
-1,-7.5,-20.3,5.4,inactive,REL,1
0,3.4,-0.4,7.2,inactive,LOC347487,1
0,1.6,18.4,-15.2,inactive,TEX19,1
-1,-2.9,-13,7.3,inactive,LOC388633,1
0,-5.6,-23.3,12.2,inactive,SIM2,1
0,2.2,1.3,3,inactive,BRI3BP,1
0,14,7.5,20.4,inactive,PRMT9,1
0,9.2,10.2,8.2,inactive,TBX20,1

Only “mean protection from cisplatin (shift in death) (%)”, for 5 of the entries above:
REL: -7.5
LOC347487: 3.4
TEX19: 1.6
LOC388633: -2.9
SIM2: -5.6

Next reagents follow.
two-siRNA summed score (-2 to +2),mean protection from cisplatin (shift in death) (%),"protection from cisplatin (shift in death), siRNA C (%)","protection from cisplatin (shift in death), siRNA D (%)",outcome,gene symbol,reagent no.
1,4.6,0.3,8.9,inactive,DMP1,1
-1,-10.4,3.3,-24.1,inactive,PDLIM4,1
0,-1.2,6.1,-8.6,inactive,PRDM16,1
0,6.4,-3.1,15.9,inactive,TUBA4A,1
1,7.6,13.6,1.7,inactive,LOC127550,1
0,2.8,6.9,-1.2,inactive,TVP23B,1
0,6.7,1.4,12.1,inactive,SPACA6,1
-1,-8.9,4.2,-22,inactive,SUN1,1
1,11.5,18.5,4.4,inactive,LOC390426,1
0,4.1,2.3,5.9,inactive,LOC440203,1
0,2.3,-5.7,10.4,inactive,SLC66A2,1
0,12.8,10.5,15.1,inactive,LOC401585,1
0,-3.9,-7.3,-0.5,inactive,NFAM1,1
0,5.1,6.3,4,inactive,HSPH1,1
-1,-29.9,-27.8,-32,inactive,BTN3A2,1
0,3.1,4.1,2.1,inactive,KNL1,1
-1,3.9,19.6,-11.8,inactive,MAPK14,1
0,-2.8,-2,-3.6,inactive,KLHDC8A,1
0,-0.1,0.6,-0.8,inactive,DAG1,1
-2,-23.6,-16.9,-30.3,active,GLA,1
0,12.8,7.9,17.7,inactive,ADISSP,1
0,-5.3,-6,-4.5,inactive,WNK1,1
1,13,4.7,21.3,inactive,WNK1,2
0,3.6,4.6,2.7,inactive,AUTS2,1
